Binding data for 1 molecule are collected here from publication PMC4464076.

Amino acid sequences for entries named in this document (tags omitted). A change or cut given only in a name is not applied to a line headed by its entry.
UniProt Q15386: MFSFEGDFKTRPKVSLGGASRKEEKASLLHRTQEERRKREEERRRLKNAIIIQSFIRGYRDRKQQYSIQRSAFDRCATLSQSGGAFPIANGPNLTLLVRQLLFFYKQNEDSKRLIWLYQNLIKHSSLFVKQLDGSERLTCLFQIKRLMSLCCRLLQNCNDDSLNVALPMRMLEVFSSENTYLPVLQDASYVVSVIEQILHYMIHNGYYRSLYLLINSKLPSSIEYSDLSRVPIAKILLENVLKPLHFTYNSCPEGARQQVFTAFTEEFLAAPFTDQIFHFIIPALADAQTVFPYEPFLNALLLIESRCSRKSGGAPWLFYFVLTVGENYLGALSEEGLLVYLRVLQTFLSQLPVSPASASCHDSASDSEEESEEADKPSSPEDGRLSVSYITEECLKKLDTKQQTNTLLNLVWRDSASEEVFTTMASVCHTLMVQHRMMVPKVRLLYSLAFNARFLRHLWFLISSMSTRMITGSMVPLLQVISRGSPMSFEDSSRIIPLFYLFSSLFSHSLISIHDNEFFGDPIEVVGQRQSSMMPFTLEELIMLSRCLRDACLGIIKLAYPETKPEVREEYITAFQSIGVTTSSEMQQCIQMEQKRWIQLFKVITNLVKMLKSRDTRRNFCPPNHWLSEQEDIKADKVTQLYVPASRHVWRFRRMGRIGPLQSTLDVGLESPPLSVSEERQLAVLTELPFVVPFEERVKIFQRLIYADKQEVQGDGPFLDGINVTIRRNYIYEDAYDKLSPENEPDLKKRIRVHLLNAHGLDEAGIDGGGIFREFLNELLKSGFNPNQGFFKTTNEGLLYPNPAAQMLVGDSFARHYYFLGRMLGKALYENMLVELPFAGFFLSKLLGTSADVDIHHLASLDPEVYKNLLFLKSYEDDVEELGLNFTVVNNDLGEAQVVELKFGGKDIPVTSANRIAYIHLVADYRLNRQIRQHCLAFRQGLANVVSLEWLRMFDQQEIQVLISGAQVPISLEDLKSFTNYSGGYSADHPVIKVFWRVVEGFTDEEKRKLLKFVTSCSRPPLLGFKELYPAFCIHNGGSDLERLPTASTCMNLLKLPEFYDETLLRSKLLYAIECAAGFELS

No constants are given. Whether binding was seen depends on the method and setting. In cells and extracts the contact can be indirect. A yes stands for co-enrichment or nearness to the bait. Other partners may have been found.

In this assay the target is Ubiquitin-protein ligase E3C (UBE3C), endogenous in glioma cells (human (endogenous in U87, U251 and TJ899 glioblastoma cells)) (UniProt Q15386). Put plainly: affinity purification with mass spectrometry; co-IP of UBE3C from lysates of U87, U251 and TJ899 cells (1% Brij 97 lysis buffer, 4 °C), precipitate analysed by LC-MS/MS.

B1: Annexin A7 (ANXA7), endogenous in glioma cells (protein, UniProt P20073 1-488)
chain: MSYPGYPPTGYPPFPGYPPAGQESSFPPSGQYPYPSGFPPMGGGAYPQVPSSGYPGAGGYPAPGGYPAPGGYPGAPQPGGAPSYPGVPPGQGFGVPPGGAGFSGYPQPPSQSYGGGPAQVPLPGGFPGGQMPSQYPGGQPTYPSQINTDSFSSYPVFSPVSLDYSSEPATVTQVTQGTIRPAANFDAIRDAEILRKAMKGFGTDEQAIVDVVANRSNDQRQKIKAAFKTSYGKDLIKDLKSELSGNMEELILALFMPPTYYDAWSLRKAMQGAGTQERVLIEILCTRTNQEIREIVRCYQSEFGRDLEKDIRSDTSGHFERLLVSMCQGNRDENQSINHQMAQEDAQRLYQAGEGRLGTDESCFNMILATRSFPQLRATMEAYSRMANRDLLSSVSREFSGYVESGLKTILQCALNRPAFFAERLYYAMKGAGTDDSTLVRIVVTRSEIDLVQIKQMFAQMYQKTLGTMIAGDTSGDYRRLLLAIVGQ
Take B1: the binding result is given as “binds”.
